Article PMC1472246, “Structural Basis for a Munc13–1 Homodimer to Munc13–1/RIM Heterodimer Switch” (PLoS Biology, 2006)
Results are given in words; binding and its absence hold for the method and conditions named. Some entries that bind do so weakly or less than the wild type.

B1: Munc13–1(3–132) (domain or fragment, rat, UniProt Q62768 3-132, looked up)
chain: LLCVGVKKAKFDGAQEKFNTYVTLKVQNVKSTTIAVRGSQPSWEQDFMFEINRLDLGLTVEVWNKGLIWDTMVGTVWIPLRTIRQSNEEGPGEWLTLDSQAIMADSEICGTKDPTFHRILLDAHFELPLD
notes: Forms a homodimer (AUC); source: bacteria, GST fusion, purified (glutathione-Sepharose, GST cleaved, size-exclusion or ion-exchange chromatography)
B2: Munc13–1(3–209) (domain or fragment, rat, UniProt Q62768 3-209, looked up)
chain: LLCVGVKKAKFDGAQEKFNTYVTLKVQNVKSTTIAVRGSQPSWEQDFMFEINRLDLGLTVEVWNKGLIWDTMVGTVWIPLRTIRQSNEEGPGEWLTLDSQAIMADSEICGTKDPTFHRILLDAHFELPLDIPEEEARYWAKKLEQLNAMRDQDEYSFQDQQDKPLPVPSSQCCNWNYFGWGEQNDDPDSAVDDRDSDYRSETSNSIP
notes: Munc13-1, rat, residues 3-209; Forms a homodimer (AUC); 15N-labelled for NMR; source: bacteria, GST fusion, purified (glutathione-Sepharose, GST cleaved, size-exclusion or ion-exchange chromatography)

Legend:
Munc13–1(3–132) (rat) = Munc13–1(3–132) (rat) (UniProt Q62768); experiment: SEC; gel filtration, unpublished data (fragments and mutants not shown in Figures 1B and 4A); Superdex S75 or S200; 30 mM Tris-HCl, 150 mM NaCl, 1 mM TCEP, pH 7.4; both purified
Munc13–1(3–209) = molecular target: B2; experiment: as above

Binder	binding (Munc13–1(3–132) (rat))	binding (Munc13–1(3–209))
B1	binds	
B2		binds
